Values after ≈ are worked out from the molar mass of the structure shown.
Tests used:
[1] = Table 1
[2] = physchem; settings: water, room temperature

## C(=C\c1ccccc1)/CN1CCN(C(c2ccccc2)c2ccccc2)CC1 [Cinnarizine]
[1]; drug alone
  Solubility ratio to FB: FB: 1 x
[1]; drug with tartaric acid
  Solubility ratio to FB: FB/AT: 90 x
[1]; drug/tartaric acid/β-CD multicomponent complex
  Solubility ratio to FB: FB/AT/βCD: 2000 x
[1]; drug/tartaric acid/β-CD multicomponent complex, room temperature
  Water solubility, drug concentration F: FB/AT/βCD: 20000 µg/mL
[1]; drug/β-CD complex
  Solubility ratio to FB: FB/βCD: 5 x
[1]; drug/β-cyclodextrin complex, room temperature
  Water solubility, drug concentration F: FB/βCD: 500 µg/mL
[2]; drug concentration F: FB, Table 1, basic-type drug alone
  solubility: 100 µg/mL (≈ 0.271 mM)
[2]; drug concentration F: FB/AT, Table 1, drug with tartaric acid
  solubility: 9000 µg/mL (≈ 24.4 mM)
